Reference: patent US20030186424A1, “Reagents and methods for identifying and modulating expression of genes regulated by CDK inhibitors” (priority 2001, published 2003)
The exact form of at least one protein or probe is not confirmed.

Tested on: TBP + TFIIB complex
Assay: EMSA
Conditions: stable complex only with both TBP and TFIIB; 30 C, 4 mM MgCl2, 55 mM KCl, poly(dG.dC); exact probe span not stated; purified recombinant protein; protein details: gift from Stefan Roberts, University of Manchester; label: 32P

Sequence: TTCCTGAAGGGGGGCTATAAAAGGGGGTGGGGGCGCGTTCGTCCTCACTCTCTTCCGCATGAA (double strand) [AdML TATA box core promoter probe]
- binding result: binds
